Laboratory results taken from publication PMC8787401.
Results are given in words; binding and its absence hold for the method and conditions named. Binding seen in cells or lysates may run through a third protein. Some binding calls cover weakened binding; strength is not graded here. Tags and fused reporters may be left off the sequences shown.

By UniProt entry, the sequences of proteins in these tests, tags left out.
UniProt P16599: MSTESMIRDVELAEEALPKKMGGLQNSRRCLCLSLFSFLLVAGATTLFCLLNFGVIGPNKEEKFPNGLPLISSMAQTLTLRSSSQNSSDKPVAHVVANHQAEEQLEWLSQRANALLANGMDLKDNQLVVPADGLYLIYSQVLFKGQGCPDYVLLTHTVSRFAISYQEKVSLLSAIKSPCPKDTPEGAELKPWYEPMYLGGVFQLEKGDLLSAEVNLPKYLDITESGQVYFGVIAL

T1: TNFR1 (HA-tagged, overexpressed in rat oligodendrocytes) (UniProt P25118)
T1 sequence: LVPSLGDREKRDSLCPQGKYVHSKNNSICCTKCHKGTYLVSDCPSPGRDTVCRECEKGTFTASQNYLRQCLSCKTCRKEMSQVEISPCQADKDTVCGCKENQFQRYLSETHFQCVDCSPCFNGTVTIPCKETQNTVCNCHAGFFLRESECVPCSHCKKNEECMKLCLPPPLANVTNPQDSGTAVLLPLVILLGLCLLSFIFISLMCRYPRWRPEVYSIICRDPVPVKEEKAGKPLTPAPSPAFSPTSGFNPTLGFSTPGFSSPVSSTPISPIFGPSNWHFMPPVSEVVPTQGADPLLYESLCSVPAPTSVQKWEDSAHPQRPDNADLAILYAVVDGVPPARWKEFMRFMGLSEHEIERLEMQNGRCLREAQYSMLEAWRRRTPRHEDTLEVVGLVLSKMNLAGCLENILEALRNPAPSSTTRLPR

T2: TNFR1 (HA-tagged, overexpressed in HEK293T cells) (UniProt P25118)
T2 sequence: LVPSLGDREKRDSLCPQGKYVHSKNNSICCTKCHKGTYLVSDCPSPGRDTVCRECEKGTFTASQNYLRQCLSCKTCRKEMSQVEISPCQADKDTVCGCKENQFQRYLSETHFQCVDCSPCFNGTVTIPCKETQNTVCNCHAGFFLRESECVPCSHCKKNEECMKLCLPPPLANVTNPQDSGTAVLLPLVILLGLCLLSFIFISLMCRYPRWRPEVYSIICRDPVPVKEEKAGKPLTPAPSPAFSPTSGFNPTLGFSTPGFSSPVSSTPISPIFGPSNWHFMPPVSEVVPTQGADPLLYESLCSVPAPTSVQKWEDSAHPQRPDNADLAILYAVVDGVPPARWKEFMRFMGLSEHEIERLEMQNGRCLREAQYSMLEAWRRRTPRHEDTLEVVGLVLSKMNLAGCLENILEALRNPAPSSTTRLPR


What was measured:
[1] = target: T1, TNFR1 (HA-tagged, overexpressed in rat oligodendrocytes); assay: co-IP; rat oligodendrocytes nucleofected with pcDNA3.3-HA-TNFR1 / plvo3-Flag-Ninj2 or empty vector, lysed after 48 h, anti-HA antibodies, western blot
[2] = target: T2, TNFR1 (HA-tagged, overexpressed in HEK293T cells); assay: co-IP; HEK293T cells transfected with plasmids for 48 h, lysed, anti-HA antibodies overnight at 4 °C, Protein A magnetic beads, western blot

binding [1] | binding [2] | Molecule
binds |  | endogenous TNFα of rat oligodendrocytes (from UniProt P16599 1-235) (ligand)
binds |  | Ninj2 of rat oligodendrocytes that were transfected with empty or TNFR1 vector only (protein, UniProt Q9JHE8 1-144) MESDREIIHLQHRHSTPGGNQRHINLNHYATKKSVAESMLDVALFMSNAMRLKSVLEQGPFSQYYTTLLTLISASLLLQVVIGILLVVIARLNLNEVENQWRLNQLNNAATTLVFITVVINIFITAFGAHKTGSVAARTSSNPI
 | binds | Nerve injury-induced protein 2 (Ninj2), overexpressed in HEK293T cells (protein, UniProt Q9JL89 1-143) MESDRETIHLQHRHSMRGGNQRIDLNFYATKKSVAESMLDVALFMSNAMRLKSVLQQGPFAEYYTTLVTLIIVSLLLQVVISLLLVFIAILNLNEVENQRHLNKLNNAATILVFITVVINIFITAFGAHHAASMAARTSSNPI
binds |  | Ninj2 (Flag-tagged, overexpressed in rat oligodendrocytes) (protein, UniProt Q9JL89 1-143) MESDRETIHLQHRHSMRGGNQRIDLNFYATKKSVAESMLDVALFMSNAMRLKSVLQQGPFAEYYTTLVTLIIVSLLLQVVISLLLVFIAILNLNEVENQRHLNKLNNAATILVFITVVINIFITAFGAHHAASMAARTSSNPI
